Patent US8901086B2, “Compositions including triciribine and methods of use thereof” (University of South Florida, priority 2004, dated 2014)
At least one structure is not confirmed: it was looked up by name or label, or the drawing left a doubt.

How the values were obtained:
Type in all cases: cell-based
Akt = assay: Src and Akt phosphorylation in A375 cells
SGK = target: T1, SGK (Homo sapiens, UniProt O00141); assay: In vitro SGK kinase assay of HA-SGK immunoprecipitates
T1 construct: expressed in transfected cells; host or cells: HEK293
T1 sequence (O00141 1-431): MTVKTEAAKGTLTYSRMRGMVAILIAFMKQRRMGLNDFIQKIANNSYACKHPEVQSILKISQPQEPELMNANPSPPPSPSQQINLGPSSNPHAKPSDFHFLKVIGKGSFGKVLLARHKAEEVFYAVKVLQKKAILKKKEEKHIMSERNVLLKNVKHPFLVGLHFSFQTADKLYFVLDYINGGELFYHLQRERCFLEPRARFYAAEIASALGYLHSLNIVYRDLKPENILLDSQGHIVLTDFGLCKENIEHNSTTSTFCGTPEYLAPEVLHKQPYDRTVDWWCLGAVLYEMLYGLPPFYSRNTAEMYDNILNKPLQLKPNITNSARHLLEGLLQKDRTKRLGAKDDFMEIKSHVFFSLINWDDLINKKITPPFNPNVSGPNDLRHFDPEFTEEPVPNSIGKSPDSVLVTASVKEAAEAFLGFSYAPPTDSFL

PDK1 = target: T2, PDK1 (Homo sapiens, UniProt O15530); assay: PDK1 autophosphorylation at serine-241 in HEK293 cells; details: EGF-stimulated
T2 construct: expressed in transfected cells; host or cells: HEK293
T2 sequence (O15530 1-556): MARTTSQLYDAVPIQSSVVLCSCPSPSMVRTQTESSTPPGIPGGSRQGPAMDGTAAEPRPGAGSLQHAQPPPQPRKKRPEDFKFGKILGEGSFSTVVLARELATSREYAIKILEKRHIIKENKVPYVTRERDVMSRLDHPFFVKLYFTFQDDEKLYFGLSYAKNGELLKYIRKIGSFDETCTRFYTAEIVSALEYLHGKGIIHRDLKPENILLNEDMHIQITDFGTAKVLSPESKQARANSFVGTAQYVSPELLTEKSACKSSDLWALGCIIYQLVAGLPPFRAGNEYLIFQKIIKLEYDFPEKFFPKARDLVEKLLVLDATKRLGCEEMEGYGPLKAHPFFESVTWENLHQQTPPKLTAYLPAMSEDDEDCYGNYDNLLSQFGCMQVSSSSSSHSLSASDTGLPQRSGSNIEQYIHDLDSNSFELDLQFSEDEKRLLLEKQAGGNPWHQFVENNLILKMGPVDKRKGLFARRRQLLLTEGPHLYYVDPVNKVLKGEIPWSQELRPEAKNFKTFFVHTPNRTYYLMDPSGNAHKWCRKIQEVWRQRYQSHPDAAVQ

| SMILES | phosphorylation of Akt (Akt) | serum-induced SGK kinase activity (SGK) | phosphorylation levels of PDK1 (serine-241) (PDK1) |
| --- | --- | --- | --- |
| Cc1nc(Nc2ncc(C(=O)Nc3c(C)cccc3Cl)s2)cc(N2CCN(CCO)CC2)n1 [dasatinib] | increases phosphorylation of Akt | – | – |
| COC[C@H]1OC(=O)c2coc3c2[C@@]1(C)C1=C(C3=O)[C@@H]2CCC(=O)[C@@]2(C)C[C@H]1OC(C)=O [wortmannin] | – | attenuated | can inhibit |
